Some entries share one result that the patent states for a list of compounds. For at least one compound, name, drawing or mass did not settle the structure.
Experiments:
[1] = tested on: Tet-On Aβ-GFP HEK-293 cells; assay: ROS assay in Tet-On Aβ-GFP HEK-293 cells; type: cell-based, human; settings: 5 μM; uninduced cells = 100%, induced untreated cells 128%
Experimental: Given that Aβ deposition causes cell death via a number of potential mechanisms including oxidative stress, the inventor also performed ROS assay with curcumin or synthetic indolylquinoline compounds 1, 2, 6 and 7 treatment (5 μM).

Chains of the proteins cited; added tags and fusions are not shown. Residues count along the entry.
UniProt P05067, 672-713 limits assumed: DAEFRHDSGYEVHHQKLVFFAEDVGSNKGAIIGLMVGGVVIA

[2] = tested on: Tet-On Aβ-GFP SH-SY5Y cells; assay: Neurite outgrowth in Tet-On Aβ-GFP SH-SY5Y cells (TUBB3 immunostaining, HCA); type: cell-based, human; settings: 5 μM; Dox 6 days; uninduced cells = 100%, induced untreated cells 87%
Experimental: Tet-On Aβ human neuroblastoma SH-SY5Y cells were used to examine the neuroprotective potential of the compounds of the present invention. Tet-On Aβ-GFP SH-SY5Y cells were plated into 24-well plates with 10 μM retinoic acid (RA), grown for 24 hr and treated with tested indolylquinoline compounds 1, 2, 6 and 7 (5 μM) for 8 hr. Then doxycycline (10 μM) was added to the medium to for 6 days. Neurite outgrowth was assessed after TUBB3 immunostaining, and examined with the HCA system. The result is shown in FIG. 5, wherein the relative neurite outgrowth of uninduced cells (untreated with Dox) is set as 100%. *, P<0.05 between induced vs. uninduced cells or compound-treated vs. untreated cells (n=3).

Trx-His-Aβ protein = target: T1, Trx-His-Aβ protein (Homo sapiens, UniProt P05067); assay: Trx-His-Aβ biochemical assay (thioflavin T staining); settings: 5˜20 μM compound, 48 hr, not shown in the figure
T1 construct: the inventors overexpressed Trx-His tagged Aβ construct in E. coli; made in house; host or cells: E. coli
Experimental: Aggregation of β-amyloid (Aβ) was considered as target for intervention. For the biochemical assay, the inventors overexpressed Trx-His tagged Aβ construct in E. coli. After metal-affinity chromatography purification, the misfolded Trx-His-Aβ proteins can be identified by thioflavin T staining assay. The fluorescent intensity is increased after thioflavin T binds misfolded Trx-His-Aβ protein, and thus the misfolding level of Trx-His-Aβ protein can be measured. […] Then thioflavin T (10 μM) was added for 5 min and fluorescence analyzed on a microplate reader (excitation: 420 nm, emission: 485 nm). To normalize, the relative thioflavin T fluorescence of Trx-His-Aβ protein with 2 days' incubation at 37° C. is set as 100%. *, P<0.05 (n=3).

SMILES	relative ROS level [1]	relative neurite outgrowth [2]	decrease of Trx-His-Aβ protein aggregation (in words) (Trx-His-Aβ protein)
CC(=O)C(=Cc1ccccc1[N+](=O)[O-])Cc1c[nH]c2ccccc12 [compound 1]	99˜123%	101˜108%	
CC(=O)C(=Cc1ccccc1[N+](=O)[O-])Cc1c(C)[nH]c2ccccc12 [compound 2]	99˜123%	101˜108%	
CC(=O)C(=Cc1ccccc1[N+](=O)[O-])Cc1c(-c2ccccc2)[nH]c2ccccc12 [compound 3]			not significant decreased
CC(=O)C(=Cc1ccccc1[N+](=O)[O-])Cc1c[nH]c2ccc(Br)cc12 [compound 4]			not significant decreased
COc1ccc2[nH]cc(CC(=Cc3ccccc3[N+](=O)[O-])C(C)=O)c2c1 [compound 5]			not significant decreased
CCc1cccc2c(CC(=Cc3ccccc3[N+](=O)[O-])C(C)=O)c[nH]c12 [compound 6]	99˜123%	101˜108%	
Cc1nc2ccccc2cc1Cc1c[nH]c2ccccc12 [compound 7]	99˜123%	101˜108%	
Cc1nc2ccccc2cc1Cc1c[nH]c2ccc(Br)cc12 [compound 9]			not significant decreased
CCc1cccc2c(Cc3cc4ccccc4nc3C)c[nH]c12 [compound 10]			not significant decreased

Reference: patent US9795600B2, “Method for treating abnormal β-amyloid mediated diseases” (NATIONAL TAIWAN NORMAL UNIVERSITY, priority 2014, dated 2017)
